# Measured values: PubChem BioAssay AID1347076 (National Center for Advancing Translational Sciences (NCATS), 2019)
# Screen size: about 400,000 compounds; about 13,000 (3.2%) were called active. Inconclusive results, whose numbers are uncertain, are shown with a selection of clear calls. Calls follow the shape of the dose curve; as a rule, active = well fitted cell-killing curve with a large enough effect; inconclusive = small, poorly fitted or top-dose-only effect, or effect the other way; inactive = flat fitted curve, though single readings scatter. Potencies beside an inconclusive call are fits to weak or partial responses and may not hold up.
# Assay: qHTS assay for MDR1-selective chemotherapeutics: Primary screen using the drug-selected MDR subline cells KB-V1; also: nearly all actives have a fitted effect of over 60% in size
# Settings: KB-V1 MDR cells viability, CellTiter-Glo, 72 h; activity change, negative = cytotoxicity: at 46.1 µM (top of the series)
# Summary of the method: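 Compound-treated KB-V1 multidrug-resistant cells, 72 h, 37 degrees C; viability by CellTiter-Glo. Fitted qHTS curves give the values.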
# % is scaled to controls: 0 for no effect and ±100 for the full control effect; potency is read from the fitted curve at half-maximal effect.
SMILES,Potency,"activity change, negative = cytotoxicity"
Cc1cc(C(=O)N/N=C/c2c3ccccc3cc3ccccc23)n[nH]1,active: 18.4 µM,–
O=C(NNC(=S)Nc1ccc(F)cc1)c1cccc([N+](=O)[O-])c1,–,inactive: 38%
CN1CCN(P(=O)(c2ccccc2)c2nc3ccccc3s2)CC1 (stereo unspecified),"inconclusive: 20.6 µM [cytotoxic, single point]",–
COC(=O)c1ccc(CSc2nccn2C)cc1,–,inactive: -1.74%
COc1ccc(N2C[C@H](C)[C@@H](CC(=O)Nc3ccccc3)C2=O)cc1,"inconclusive: 20.6 µM [cytotoxic, partial curve]",–
COCCn1c(SCC(=O)Nc2ccc(Br)cc2)nc2c([nH]c3ccccc32)c1=O,"inconclusive: 29.1 µM [rising, single point]",–
CN(C)N1C(N)=C(C#N)C(c2cccc3ccccc23)C2=C1CC(c1ccccc1)CC2=O (stereo unspecified),active: 20.6 µM,–
COc1ccc(NC(=O)Cn2c(SCc3c(F)cccc3Cl)nc3ccncc32)cc1OC,–,inactive: 8.36%
Cc1sc2nc(SCC(=O)OC(C)C)n(C)c(=O)c2c1C,active: 14.6 µM,–
CC(C)CN1C(=O)C(=O)N(CC(=O)Nc2cccc(Cl)c2Cl)C1=O,"inconclusive: 7.31 µM [rising, full curve, poor fit]",–
COc1ccc(NS(=O)(=O)c2cc(NC(=O)c3ccc(C)o3)ccc2N2CCCCC2)cc1,–,inactive: -14.4%
CCCCC[C@@H](C)N1C[C@H](COCc2ccccc2)Oc2cc(N3CCC[C@H]3COC)ccc2S1(=O)=O,"inconclusive: 3.66 µM [cytotoxic, full curve]",–
COc1cc(C2C3=C(CCCC3=O)Nc3[nH]n(-c4ccccc4)c(=O)c32)cc(OC)c1OC (stereo unspecified),–,inactive: 11.4%
CCOC(=O)c1cccc(NC(=O)Cn2cnc3nc4c(cc3c2=O)CCCC4)c1,"inconclusive: 7.31 µM [rising, partial curve, poor fit]",–
CCCCNC(=O)C1(C)CCCCN1C(=O)c1ccno1 (stereo unspecified),–,inactive: 1.98%
COc1ccc(CN2CCN(Cc3ccc(OC)c(OC)c3OC)CC2)cc1,"inconclusive: 29.1 µM [cytotoxic, single point]",–
CC(C)(Oc1ccc(Cl)cc1)C(=O)OCc1nc2ccsc2c(=O)[nH]1,–,inactive: -0.41%
CN(C)c1cccc(C(=O)NCCCSc2ccccc2)c1,–,inactive: 0.28%
CN(C1CCCCC1)S(=O)(=O)c1ccc2c(c1)CCC(=O)N2,"inconclusive: 29.1 µM [cytotoxic, single point]",–
CCOC(=O)[C@]12CCC=C1N(Cc1cccc3ccccc13)C(=O)[C@H](CC(=O)NCc1cccc(C(F)(F)F)c1)C2,active: 20.6 µM,–
CCOC(=O)Cc1csc(NC(=O)/C=C/c2ccc(Br)o2)n1,active: 14.6 µM,–

# Looked up by structure from the entries so far:
SMILES,Potency,"activity change, negative = cytotoxicity"
O=C(NNC(=S)Nc1ccc(F)cc1)c1cccc([N+](=O)[O-])c1,–,inactive: 38%
CC(C)CN1C(=O)C(=O)N(CC(=O)Nc2cccc(Cl)c2Cl)C1=O,"inconclusive: 7.31 µM [rising, full curve, poor fit]",–
